The assay has as its target T1, STING (bait of the mass spectrometry of STING-binding proteins) (UniProt Q3TBT3).
T1 sequence: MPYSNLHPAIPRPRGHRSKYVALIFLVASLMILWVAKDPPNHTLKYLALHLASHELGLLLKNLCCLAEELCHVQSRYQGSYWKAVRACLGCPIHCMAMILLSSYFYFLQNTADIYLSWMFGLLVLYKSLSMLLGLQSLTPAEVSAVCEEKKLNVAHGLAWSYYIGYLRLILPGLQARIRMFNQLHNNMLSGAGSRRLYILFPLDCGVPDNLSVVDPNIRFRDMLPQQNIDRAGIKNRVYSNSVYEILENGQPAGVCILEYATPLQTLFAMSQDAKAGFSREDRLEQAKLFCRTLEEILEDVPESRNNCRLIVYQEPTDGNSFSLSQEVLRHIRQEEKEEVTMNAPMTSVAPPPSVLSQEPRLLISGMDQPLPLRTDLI
As to the kind of experiment: affinity purification with mass spectrometry; lysate (1% Triton X-100, 150 mM NaCl, pH 7.2) on anti-FLAG M2 Affinity Gel overnight at 4 °C, FLAG peptide elution, tryptic digest, LC-MS/MS.

No constants are given. Whether binding was seen depends on the method and setting. In cells and extracts the contact can be indirect. These calls come from enrichment with a bait or labelling near it, and not all partners need be listed.

B1: Stt3b (protein, UniProt Q3TDQ1 1-823)
chain: MAEPSAPESKHKSSLNSSPWSGLMALGNSRHGHHGPGTQSASSAAAPKPGPPAGLSGGLSQPAGWQSLLSFTILFLAWLAGFSSRLFAVIRFESIIHEFDPWFNYRSTHHLASHGFYEFLNWFDERAWYPLGRIVGGTVYPGLMITAGLIHWILNTLNITVHIRDVCVFLAPTFSGLTSISTFLLTRELWNQGAGLLAACFIAIVPGYISRSVAGSFDNEGIAIFALQFTYYLWVKSVKTGSVFWTMCCCLSYFYMVSAWGGYVFIINLIPLHVFVLLLMQRYSKRVYIAYSTFYIVGLILSMQIPFVGFQPIRTSEHMAAAGVFALLQAYAFLQYLRDRLTKQEFQTLFFLGVSLAAGAVFLSVIYLTYTGYIAPWSGRFYSLWDTGYAKIHIPIIASVSEHQPTTWVSFFFDLHILVCTFPAGLWFCIKNINDERVFVALYAISAVYFAGVMVRLMLTLTPVVCMLSAIAFSNVFEHYLGDDMKRENPPVEDSSDEDDKRNPGNLYDKAGKVRKHVTEQEKPEEGLGPNIKSIVTMLMLMLLMMFAVHCTWVTSNAYSSPSVVLASYNHDGTRNILDDFREAYFWLRQNTDEHARVMSWWDYGYQIAGMANRTTLVDNNTWNNSHIALVGKAMSSNETAAYKIMRSLDVDYVLVIFGGVIGYSGDDINKFLWMVRIAEGEHPKDIREGDYFTQQGEFRVDKAGSPTLLNCLMYKMSYYRFGEMQLDFRTPPGFDRTRNAEIGNKDIKFKHLEEAFTSEHWLVRIYKVKAPDNRETLGHKPRVTNIVPKQKYLSKKTTKRKRGYVKNKLVFKKGKKTSKKTV
As for B1, the binding result is on record as “binds”.

B2: Smpd4 (protein, UniProt Q6ZPR5 1-823)
chain: MAFPHLQQPSFLLASLKADSINKPFAQRCQDLVKVIEDFPAKELHAVFPWLVESIFGSLDGVLVGWNLRCLQGRVNPVEYSTAMEFLDPSGPMMKLVYKLQAEDYNFDFPVSCLPGPVKASIQENVLPDSPLYHNKVQFPPTGGLGLNLALNPFEYYMFYFALSLISQKPMSMTLHVRTSDCAYFTLVDRYLSWFLPTEGSVPPPLCSSPGGSSPSPAPRTPAMPFASYGLHTSLLKRHISHQTSVNADPASHEIWRSETLLQVFVEMWLHHYSLEMYQKMQSPHAKLEVLHYRLTVSSALHSPAQPSLQALHAYQESFTPTEEHVLVVRLLLKHLHAFANSLKPDQASPSAHSHATSPLEEFKRAAVPRFVQQKLYVFLQHCFGHWPLDATFRAVLEMWLSYLQPWRYAPEKQAQGSDPQPRCVSEKWAPFIQENLLMYTKLFVSFLNRALRTDLVSPKNALMVFRVAKVFAQPNLAEMIQKGEQLFLEPELIIPHRQHRLFTVTTSFLSPWPPVVTDASFKVKSHVYSLEGQDCKYTPMFGPEIRTLVLRLAQLITQAKQTAKSISDQYVESPTGRSFLSWLTFGLTDTNSCYPANDLDEIGQDSIRKTDEYLEKALEYLRQIFRLSEAQLAQLTLALGSARDENGKQQLPDCIVGEEGLILTPLGRYQIINGLRRFEIEYQGDLELQPIRSYEITSLVRALFRLSSAINRRFAGQMAALCSRNDFLGSFCRYHLTEPALSNRHLLSPVGRRQVTNPARGPRLSLRFLGSYRTLLLLLMAFFVASLFCIGPLSCSLLLVLGYVLYAIAMTLLTERGKLHQL
As to B2, the binding result is reported as “binds”.

The record behind these values is PMC7782846.
